From patent publication US4242262A, “9-Nitromethyldeoxyclavulanic acid derivatives preparation and compositions” (Beecham Group Limited, priority 1977, dated 1980)

System: E. coli JT 39
Experiment: MIC of ampicillin alone or with compound of the Example, E. coli JT 39
Format: cell-based
Conditions: Ampicillin alone

MIC (table 1, E. coli JT 39): > 500 µg/mL | MIC (table 2 (no quantity or unit in head), E. Coli JT 39): > 500
Structure (SMILES): CC1(C)S[C@@H]2[C@H](NC(=O)[C@H](N)c3ccccc3)C(=O)N2[C@H]1C(=O)O [Ampicillin]
